Data from US20030040479A1, “Rotational intrathecal analgesia method and device” (Omeros Corporation, priority 2001, published 2003).
At least one structure is not confirmed: it was looked up by name or label, or the drawing left a doubt.

What was measured:
Assay type in all cases: in vivo
male Sprague-Dawley rats [1] = experiment: Rat hindpaw withdrawal latency (HWL) to mechanical stimulation, Randall Selitto Test; conditions: for % Changes of HWL to Mechanical Stimulation: 10 minutes after intrathecal injection
male Sprague-Dawley rats [2] = experiment: Rat hindpaw withdrawal latency (HWL) to thermal stimulation, hot-plate test; conditions: for % Changes of HWL to Thermal Stimulation: 10 minutes after intrathecal injection
male Sprague-Dawley rats [3] = experiment: Development of tolerance to intrathecal analgesia in rat HWL tests (thermal and mechanical); conditions: intrathecal every 12 hrs
Method: A polyethylene catheter (Intramedic PE 10) was permanently implanted intrathecally with the inner tip at L3 to L5 in each animal. Rats displaying movement disorders following placement of the catheter were not used in the study. Injection volume was 10 μL of drug solution followed by 10 μL of 0.9% saline to flush the catheter. Intrathecal injections were performed every 12 hrs (morning and night).
In the morphine only group, 8 μg morphine HCl was injected every 12 hrs until complete tolerance developed and in the nociceptin only group, 10 nmol nociceptin was injected every 12 hrs until complete tolerance developed. These doses were chosen from previous studies that determined an equianalgesic dosing for these two drugs. […]
Solutions for intrathecal injection were prepared with sterilized saline (0.9%). […] The hindpaw withdrawal latency (HWL) was measured for both thermal and mechanical stimulation. […] A wedge shaped probe with a loading rate of 30 g/second was applied to the dorsal surface of the manually handled hindpaw and the mechanical stimulation required to initiate the struggle response was assessed. […] The HWLs were measured 15 min after the second intrathecal injection on a daily basis. […]

[4] = day 1, drug alone, intrathecal, text summary of both hindpaws

Compound: CC(C)C[C@H](NC(=O)[C@H](CCCCN)NC(=O)[C@H](CCCN=C(N)N)NC(=O)[C@H](C)NC(=O)[C@H](CO)NC(=O)[C@H](CCCCN)NC(=O)[C@H](CCCN=C(N)N)NC(=O)[C@H](C)NC(=O)CNC(=O)[C@@H](NC(=O)[C@H](Cc1ccccc1)NC(=O)CNC(=O)CNC(=O)[C@@H](N)Cc1ccccc1)[C@@H](C)O)C(=O)N[C@@H](C)C(=O)N[C@@H](CC(N)=O)C(=O)N[C@@H](CCC(N)=O)C(=O)O [Nociceptin, nociceptin]
- HWL increase using mechanical stimulation (male Sprague-Dawley rats [1]; [4]): 60-70%
- % Changes of HWL to Mechanical Stimulation (male Sprague-Dawley rats [1]; day 1, left hindpaw): 69.90 ± 4.11%
- % Changes of HWL to Mechanical Stimulation (male Sprague-Dawley rats [1]; day 1, right hindpaw): 61.26 ± 3.85%
- % Changes of HWL to Mechanical Stimulation (male Sprague-Dawley rats [1]; day 2, left hindpaw): 31.28 ± 5.03%
- % Changes of HWL to Mechanical Stimulation (male Sprague-Dawley rats [1]; day 2, right hindpaw): 30.79 ± 6.58%
- % Changes of HWL to Mechanical Stimulation (male Sprague-Dawley rats [1]; day 3, left hindpaw): 10.59 ± 0.93%
- % Changes of HWL to Mechanical Stimulation (male Sprague-Dawley rats [1]; day 3, right hindpaw): 10.08 ± 1.05%
- % Changes of HWL to Mechanical Stimulation (male Sprague-Dawley rats [1]; day 4, left hindpaw): −0.62 ± 1.45%
- % Changes of HWL to Mechanical Stimulation (male Sprague-Dawley rats [1]; day 4, right hindpaw): −0.76 ± 2.32%
- HWL increase using thermal stimulation (male Sprague-Dawley rats [2]; [4]): approximately 90%
- % Changes of HWL to Thermal Stimulation (male Sprague-Dawley rats [2]; day 1, left hindpaw): 93.49 ± 3.77%
- % Changes of HWL to Thermal Stimulation (male Sprague-Dawley rats [2]; day 1, right hindpaw): 90.42 ± 2.65%
- % Changes of HWL to Thermal Stimulation (male Sprague-Dawley rats [2]; day 2, left hindpaw): 39.91 ± 3.66%
- % Changes of HWL to Thermal Stimulation (male Sprague-Dawley rats [2]; day 2, right hindpaw): 43.02 ± 2.12%
- % Changes of HWL to Thermal Stimulation (male Sprague-Dawley rats [2]; day 3, left hindpaw): 9.46 ± 2.31%
- % Changes of HWL to Thermal Stimulation (male Sprague-Dawley rats [2]; day 3, right hindpaw): 12.01 ± 1.48%
- % Changes of HWL to Thermal Stimulation (male Sprague-Dawley rats [2]; day 4, left hindpaw): −2.18 ± 2.07%
- % Changes of HWL to Thermal Stimulation (male Sprague-Dawley rats [2]; day 4, right hindpaw): − 3.67 ± 1.61%
- day by which complete (total) tolerance exists (male Sprague-Dawley rats [3]): 4 days
